# Construct, isoform or probe ends are uncertain for at least one entry.
# Tests used:
# [1] = tested on: GhDREB2A-A (Gossypium hirsutum); assay: competition with a labelled probe; conditions: 200x excess; protein translated in vitro
# [2] = tested on: GhDREB2A-A (Gossypium hirsutum); assay: EMSA; conditions: protein translated in vitro; label: IRD700
# [3] = tested on: GhHSFA6B-D (Gossypium hirsutum); assay: competition with a labelled probe; conditions: 200x excess; protein translated in vitro
# [4] = tested on: GhHSFA6B-D (Gossypium hirsutum); assay: EMSA; conditions: protein translated in vitro; label: IRD700
sequence,measurement,setting,value
TCTCATGCAGCCAATGTTGTTGCTCCGCCACCGACTTAAATAATGGCATT (double strand) [ABP-DREB2A probe unlabeled (Probe-3 control)],binding result,[1],binds
TCTCATGCAGCCAATGTTGTTGCTCCGCCACCGACTTAAATAATGGCATT (double strand) [ABP-DREB2A probe (Probe-3)],binding result,[2],binds
TTTTGGGGTATTCTTGAAGCTTTCTGGAAAATTCAAGCTCGATTCATGT (double strand) [ABP-HSFA6B probe unlabeled (Probe-2 control)],binding result,[3],binds
"GTCAATAGATCAAGATAAGTTGTTTCCAGAATATTCCCCATGTTGACTTC (double strand) [IPS-HSF probe (Probe-4, reference C)]",binding result,[4],binds
"GTCAATAGATCAAGATAAGTTGTTTCCAGAATATTCCCCATGTTGACTTC (double strand) [IPS probe unlabeled (Probe-4 control, reference C)]",binding result,[3],binds
"TTTTGGATTATTCTTGAAGCTTTCTGGAAAATTCAAGCTTGGATTCATGT (double strand) [ABP-HSFA6B competitor (Competitor-2, GhABP-D)]",binding result,[3],binds
"TTTTGGGGTATTCTTGAAGCTTTCTGGAAAATTCAAGCTCGATTCATGT (double strand) [ABP-HSFA6B probe (Probe-2, site 2)]",binding result,[4],binds
"TCTCATGCAGCCAATGTCGTTGCTCCGCCACCGACTTAAATAATGGCACT (double strand) [ABP-DREB2A competitor (Competitor-3, GhABP-D)]",binding result,[1],binds
GTCAATAGATCAAGATAAGTTGTTTCCAGAATATTCCCTATGTTGACTTC (double strand) [Mutated-IPS3 (SNP:T)],binding result,[3],binds

# Source: doi:10.1101/2022.06.10.495687
